These are yes or no findings as the source states them, for the method shown. Binding seen in cells or lysates may run through a third protein. A yes stands for co-enrichment or nearness to the bait. Other partners may have been found.
target: native lamin A/C (mouse (endogenous in heart, skeletal muscle and brain)) (UniProt P48678); test: affinity purification with mass spectrometry; native lamin A/C immunoprecipitated with mAb 4C11 and Protein G Sepharose from sonicated skeletal muscle lysates of old IL10-KO and control C57Bl/6 female mice (five each); 50 mM Tris pH 7.4, 300 mM NaCl, 0.3% Triton X-100, 4°C; TMT 10-plex

Amino acid sequences for entries named in this document (tags omitted). Residues count along the entry.
UniProt P48678, residues 1-647: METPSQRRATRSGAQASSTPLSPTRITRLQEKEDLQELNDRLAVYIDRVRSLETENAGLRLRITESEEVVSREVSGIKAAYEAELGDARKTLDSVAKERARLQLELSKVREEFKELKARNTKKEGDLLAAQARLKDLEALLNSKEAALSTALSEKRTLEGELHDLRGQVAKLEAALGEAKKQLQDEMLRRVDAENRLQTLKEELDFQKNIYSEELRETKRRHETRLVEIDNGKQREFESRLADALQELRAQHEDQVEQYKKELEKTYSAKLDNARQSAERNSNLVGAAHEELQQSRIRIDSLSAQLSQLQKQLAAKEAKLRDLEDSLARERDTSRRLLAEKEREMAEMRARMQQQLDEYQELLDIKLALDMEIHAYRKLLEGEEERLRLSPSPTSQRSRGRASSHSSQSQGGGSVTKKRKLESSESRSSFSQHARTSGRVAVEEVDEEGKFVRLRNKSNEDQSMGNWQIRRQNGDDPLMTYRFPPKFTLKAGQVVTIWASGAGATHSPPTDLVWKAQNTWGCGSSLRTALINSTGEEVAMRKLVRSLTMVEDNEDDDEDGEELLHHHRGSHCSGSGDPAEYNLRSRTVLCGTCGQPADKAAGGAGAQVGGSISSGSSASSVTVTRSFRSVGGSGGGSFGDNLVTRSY
UniProt P62259: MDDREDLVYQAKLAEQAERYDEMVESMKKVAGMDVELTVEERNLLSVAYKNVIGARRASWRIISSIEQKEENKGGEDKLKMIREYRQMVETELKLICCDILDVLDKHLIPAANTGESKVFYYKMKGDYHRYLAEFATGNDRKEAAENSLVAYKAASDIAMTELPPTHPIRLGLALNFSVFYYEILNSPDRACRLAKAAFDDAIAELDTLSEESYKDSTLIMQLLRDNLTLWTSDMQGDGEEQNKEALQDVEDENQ
UniProt O35381: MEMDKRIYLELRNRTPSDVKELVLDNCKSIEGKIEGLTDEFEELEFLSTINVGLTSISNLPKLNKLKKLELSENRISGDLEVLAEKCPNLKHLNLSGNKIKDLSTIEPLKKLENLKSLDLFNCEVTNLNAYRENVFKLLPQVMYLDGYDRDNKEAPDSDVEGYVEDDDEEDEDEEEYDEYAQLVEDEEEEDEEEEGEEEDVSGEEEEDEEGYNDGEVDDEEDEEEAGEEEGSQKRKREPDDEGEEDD
UniProt Q924C5: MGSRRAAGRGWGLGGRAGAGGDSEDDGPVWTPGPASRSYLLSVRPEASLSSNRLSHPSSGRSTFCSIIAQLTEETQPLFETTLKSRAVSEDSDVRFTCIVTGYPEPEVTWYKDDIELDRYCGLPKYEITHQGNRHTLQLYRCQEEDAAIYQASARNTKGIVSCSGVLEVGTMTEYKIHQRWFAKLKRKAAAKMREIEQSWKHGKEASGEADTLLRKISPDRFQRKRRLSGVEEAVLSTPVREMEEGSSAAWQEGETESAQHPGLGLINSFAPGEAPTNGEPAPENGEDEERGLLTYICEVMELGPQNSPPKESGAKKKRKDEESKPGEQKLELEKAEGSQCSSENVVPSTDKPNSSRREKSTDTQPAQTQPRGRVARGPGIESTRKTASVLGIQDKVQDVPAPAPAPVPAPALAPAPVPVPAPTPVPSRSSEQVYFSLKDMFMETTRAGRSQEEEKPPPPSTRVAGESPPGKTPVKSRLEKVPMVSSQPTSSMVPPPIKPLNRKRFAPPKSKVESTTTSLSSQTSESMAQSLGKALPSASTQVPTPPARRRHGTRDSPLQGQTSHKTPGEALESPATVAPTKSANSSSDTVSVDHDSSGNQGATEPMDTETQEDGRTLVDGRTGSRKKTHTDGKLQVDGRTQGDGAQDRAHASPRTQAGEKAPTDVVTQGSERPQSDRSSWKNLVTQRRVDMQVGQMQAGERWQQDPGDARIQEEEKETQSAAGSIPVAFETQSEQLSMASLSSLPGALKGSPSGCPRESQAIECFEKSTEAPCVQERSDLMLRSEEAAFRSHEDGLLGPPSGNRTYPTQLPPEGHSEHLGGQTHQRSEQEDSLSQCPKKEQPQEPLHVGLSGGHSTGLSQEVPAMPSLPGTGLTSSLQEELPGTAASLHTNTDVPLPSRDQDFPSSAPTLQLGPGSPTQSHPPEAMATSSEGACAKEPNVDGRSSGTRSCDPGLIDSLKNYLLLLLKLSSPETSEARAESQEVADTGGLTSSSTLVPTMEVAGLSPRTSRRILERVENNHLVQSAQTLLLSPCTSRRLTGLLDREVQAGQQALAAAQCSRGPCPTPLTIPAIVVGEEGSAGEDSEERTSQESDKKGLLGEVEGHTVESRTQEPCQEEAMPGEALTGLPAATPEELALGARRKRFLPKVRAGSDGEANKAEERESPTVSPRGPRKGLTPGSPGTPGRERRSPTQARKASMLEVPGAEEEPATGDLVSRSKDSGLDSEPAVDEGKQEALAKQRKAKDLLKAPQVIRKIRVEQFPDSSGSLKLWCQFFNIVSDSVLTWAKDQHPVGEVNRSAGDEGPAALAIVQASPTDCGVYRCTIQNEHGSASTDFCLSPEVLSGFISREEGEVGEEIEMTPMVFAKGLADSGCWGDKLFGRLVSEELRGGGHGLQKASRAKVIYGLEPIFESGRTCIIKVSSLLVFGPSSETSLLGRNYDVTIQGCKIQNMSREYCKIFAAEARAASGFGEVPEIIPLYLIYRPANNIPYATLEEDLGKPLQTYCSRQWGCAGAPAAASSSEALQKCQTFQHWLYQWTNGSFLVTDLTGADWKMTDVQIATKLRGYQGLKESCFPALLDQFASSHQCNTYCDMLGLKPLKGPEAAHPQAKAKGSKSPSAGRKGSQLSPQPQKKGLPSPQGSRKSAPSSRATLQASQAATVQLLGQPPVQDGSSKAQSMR
UniProt P11798: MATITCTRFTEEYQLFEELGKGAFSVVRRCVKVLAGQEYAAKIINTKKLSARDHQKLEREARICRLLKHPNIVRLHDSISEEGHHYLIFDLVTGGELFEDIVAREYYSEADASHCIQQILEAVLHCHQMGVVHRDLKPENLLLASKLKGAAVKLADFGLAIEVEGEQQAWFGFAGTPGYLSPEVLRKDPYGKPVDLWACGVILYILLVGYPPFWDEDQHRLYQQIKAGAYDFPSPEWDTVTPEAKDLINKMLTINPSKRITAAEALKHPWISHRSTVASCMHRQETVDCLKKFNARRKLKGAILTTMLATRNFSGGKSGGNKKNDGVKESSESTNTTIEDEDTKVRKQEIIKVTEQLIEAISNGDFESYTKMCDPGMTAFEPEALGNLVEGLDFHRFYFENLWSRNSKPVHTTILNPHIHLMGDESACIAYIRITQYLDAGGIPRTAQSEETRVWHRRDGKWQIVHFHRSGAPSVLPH
UniProt Q923T9: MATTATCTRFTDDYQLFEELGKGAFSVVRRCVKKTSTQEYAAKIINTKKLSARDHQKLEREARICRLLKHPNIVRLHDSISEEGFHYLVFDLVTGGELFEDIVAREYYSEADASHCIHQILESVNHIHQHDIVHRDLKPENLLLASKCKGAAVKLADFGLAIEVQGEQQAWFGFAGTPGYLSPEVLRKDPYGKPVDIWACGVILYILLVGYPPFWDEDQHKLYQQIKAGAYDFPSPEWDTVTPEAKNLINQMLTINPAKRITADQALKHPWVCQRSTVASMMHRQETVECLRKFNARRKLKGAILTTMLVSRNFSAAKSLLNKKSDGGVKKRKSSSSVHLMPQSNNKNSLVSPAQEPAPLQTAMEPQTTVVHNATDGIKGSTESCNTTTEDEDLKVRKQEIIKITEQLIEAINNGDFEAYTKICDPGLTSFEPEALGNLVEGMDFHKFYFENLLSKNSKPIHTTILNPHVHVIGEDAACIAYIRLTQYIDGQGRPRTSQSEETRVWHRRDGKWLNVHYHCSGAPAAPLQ
UniProt P51859: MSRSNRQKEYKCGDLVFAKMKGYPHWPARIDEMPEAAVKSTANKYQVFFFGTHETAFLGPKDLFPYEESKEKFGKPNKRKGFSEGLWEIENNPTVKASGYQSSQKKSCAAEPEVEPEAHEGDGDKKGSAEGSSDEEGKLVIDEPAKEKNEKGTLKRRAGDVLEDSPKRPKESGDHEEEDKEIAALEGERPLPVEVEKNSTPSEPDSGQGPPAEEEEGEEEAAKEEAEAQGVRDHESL
UniProt P26883: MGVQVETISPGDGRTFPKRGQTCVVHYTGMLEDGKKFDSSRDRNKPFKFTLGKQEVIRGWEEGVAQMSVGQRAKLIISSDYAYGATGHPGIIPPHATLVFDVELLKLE
UniProt O54950: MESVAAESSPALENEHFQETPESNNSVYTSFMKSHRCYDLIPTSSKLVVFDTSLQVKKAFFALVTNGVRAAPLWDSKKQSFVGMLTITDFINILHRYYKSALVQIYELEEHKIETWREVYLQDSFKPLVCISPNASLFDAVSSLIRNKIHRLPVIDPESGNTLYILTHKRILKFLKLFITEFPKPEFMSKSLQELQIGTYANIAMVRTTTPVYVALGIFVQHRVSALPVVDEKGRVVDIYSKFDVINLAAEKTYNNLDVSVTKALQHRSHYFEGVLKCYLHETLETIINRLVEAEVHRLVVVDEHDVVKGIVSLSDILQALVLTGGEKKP
UniProt Q9JJG0: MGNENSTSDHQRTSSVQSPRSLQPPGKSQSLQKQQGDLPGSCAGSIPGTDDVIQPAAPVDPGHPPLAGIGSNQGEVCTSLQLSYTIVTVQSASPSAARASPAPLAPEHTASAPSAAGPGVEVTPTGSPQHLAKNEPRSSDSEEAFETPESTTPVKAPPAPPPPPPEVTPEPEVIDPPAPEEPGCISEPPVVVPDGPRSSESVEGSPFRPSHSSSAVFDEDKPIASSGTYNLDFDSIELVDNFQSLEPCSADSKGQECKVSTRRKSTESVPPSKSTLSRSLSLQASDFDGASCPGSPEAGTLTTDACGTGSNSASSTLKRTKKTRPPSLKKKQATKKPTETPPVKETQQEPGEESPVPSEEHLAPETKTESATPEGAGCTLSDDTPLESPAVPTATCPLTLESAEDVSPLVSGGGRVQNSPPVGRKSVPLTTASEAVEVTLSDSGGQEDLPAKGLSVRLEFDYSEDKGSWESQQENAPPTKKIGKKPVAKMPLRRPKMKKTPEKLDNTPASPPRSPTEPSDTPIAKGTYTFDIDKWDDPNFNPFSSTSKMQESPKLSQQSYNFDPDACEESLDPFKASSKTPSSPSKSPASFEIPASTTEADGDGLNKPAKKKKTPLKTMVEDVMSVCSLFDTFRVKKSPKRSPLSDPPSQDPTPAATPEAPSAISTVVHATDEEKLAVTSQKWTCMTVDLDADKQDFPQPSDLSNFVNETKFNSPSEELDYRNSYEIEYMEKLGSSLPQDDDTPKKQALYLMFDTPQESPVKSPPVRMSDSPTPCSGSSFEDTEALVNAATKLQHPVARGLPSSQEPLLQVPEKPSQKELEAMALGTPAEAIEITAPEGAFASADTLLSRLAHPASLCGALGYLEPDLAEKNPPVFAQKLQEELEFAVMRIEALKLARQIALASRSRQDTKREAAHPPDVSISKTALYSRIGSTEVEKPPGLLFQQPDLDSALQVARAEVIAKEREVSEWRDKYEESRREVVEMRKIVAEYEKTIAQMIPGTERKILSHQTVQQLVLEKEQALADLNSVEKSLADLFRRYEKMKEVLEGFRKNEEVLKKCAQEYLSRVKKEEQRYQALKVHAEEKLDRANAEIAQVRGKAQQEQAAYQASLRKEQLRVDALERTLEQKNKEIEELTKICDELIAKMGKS
UniProt Q9JLV1: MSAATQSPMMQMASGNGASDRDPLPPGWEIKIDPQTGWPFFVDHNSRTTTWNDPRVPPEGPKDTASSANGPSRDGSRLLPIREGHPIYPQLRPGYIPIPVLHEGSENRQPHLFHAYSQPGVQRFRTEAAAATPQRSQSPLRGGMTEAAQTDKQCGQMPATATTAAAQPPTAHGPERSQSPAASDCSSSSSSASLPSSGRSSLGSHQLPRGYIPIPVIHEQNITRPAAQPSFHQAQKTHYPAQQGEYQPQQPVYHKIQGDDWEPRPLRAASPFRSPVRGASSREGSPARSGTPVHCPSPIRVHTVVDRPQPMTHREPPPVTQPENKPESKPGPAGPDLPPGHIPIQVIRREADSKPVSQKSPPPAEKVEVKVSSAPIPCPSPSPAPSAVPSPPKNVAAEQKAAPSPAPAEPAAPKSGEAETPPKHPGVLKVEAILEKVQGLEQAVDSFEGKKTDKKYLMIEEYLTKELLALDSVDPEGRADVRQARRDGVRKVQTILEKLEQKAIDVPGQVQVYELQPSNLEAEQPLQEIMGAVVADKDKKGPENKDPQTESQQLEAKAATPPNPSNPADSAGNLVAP
UniProt Q9Z204: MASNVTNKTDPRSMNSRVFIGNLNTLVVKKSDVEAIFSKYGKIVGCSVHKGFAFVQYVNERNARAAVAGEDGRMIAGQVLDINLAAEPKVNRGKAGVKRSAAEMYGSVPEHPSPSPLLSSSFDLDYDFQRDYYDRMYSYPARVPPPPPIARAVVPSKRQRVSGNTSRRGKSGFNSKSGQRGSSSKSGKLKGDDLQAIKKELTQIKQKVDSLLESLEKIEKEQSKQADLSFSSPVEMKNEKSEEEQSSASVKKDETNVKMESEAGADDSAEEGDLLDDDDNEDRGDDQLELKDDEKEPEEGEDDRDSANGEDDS

binding, binds:
14-3-3 epsilon (Ywhae) (from UniProt P62259 1-255)
Acidic leu-rich nuclear phosphop’n 32 family member A (from UniProt O35381 1-247)
Akt2 (from UniProt Q60823 1-481)
Alpha-protein kinase 3 (from UniProt Q924C5 1-1680)
Ankyrin repeat domain-containing protein 2 (from UniProt Q9WV06 1-328)
Camk2a (from UniProt P11798 1-478)
Camk2g (from UniProt Q923T9 1-529)
Condensin complex subunit 2 (from UniProt Q8C156 1-731)
Cysteine and glycine-rich protein 3 (aka MLP), mouse (from UniProt P50462 1-194)
DnaJ homolog subfamily B member 4 (from UniProt Q9D832 1-337)
Doublesex- and mab-3-related transcription factor 2 (from UniProt Q8BG36 1-561)
Fxr1 (Fragile X syndrome-related protein 1) (from UniProt Q61584 1-677)
Hepatoma-derived growth factor (from UniProt P51859 1-237)
Heterogeneous nuclear ribonucleoprotein U (from UniProt Q8VEK3 1-800)
Matrin 3 (from UniProt Q8K310 1-846)
Myc box-dependent-interacting protein 1 (from UniProt O08539 1-588)
NAMPT (from UniProt Q99KQ4 1-491)
Numa1 (from UniProt E9Q7G0 1-2094)
PDZ and LIM domain protein 7 (from UniProt Q3TJD7 1-457)
PR domain zinc finger protein 2 (from UniProt A2A7B5 1-1709)
Pcbp1 (poly(rC)-binding protein, aka HnrnpE1) (from UniProt P60335 1-356)
Peptidyl-prolyl cis-trans isomerase FKBP1A (from UniProt P26883 1-108)
Ppp1cc (from UniProt P63087 1-323)
Prkaa2 (from UniProt Q8BRK8 1-552)
Prkag1 (from UniProt O54950 1-330)
Prkar2a (from UniProt P12367 1-401)
Protein FAM114A2 (from UniProt Q8VE88 1-497)
Ras-related GTP-binding protein D (from UniProt Q7TT45 1-449)
Ryanodine receptor 1 (from UniProt E9PZQ0 1-5035)
Signal transducer and activator of transcription 5B (from UniProt P42232 1-786)
Smc3 (structural maintenance of chromosomes protein 3) (from UniProt Q9CW03 1-1217)
Smoothelin (from UniProt Q921U8 1-923)
TAR DNA-binding protein 43 (from UniProt Q921F2 1-414)
Transforming acidic coiled-coil-containing protein 2 (from UniProt Q9JJG0 1-1149)
protein phosphatase 2 (Ppp2cb) (from UniProt P62715 1-309)

target: native lamin A/C (mouse (endogenous in heart, skeletal muscle and brain)) (UniProt P48678); test: affinity purification with mass spectrometry; native lamin A/C immunoprecipitated with mAb 4C11 and Protein G Sepharose from sonicated heart lysates of old IL10-KO and control C57Bl/6 female mice (five each); 50 mM Tris pH 7.4, 300 mM NaCl, 0.3% Triton X-100, 4°C; TMT 10-plex

binding, binds:
BAG family molecular chaperone regulator 3 (from UniProt Q9JLV1 1-577)
Cysteine and glycine-rich protein 3 (aka MLP), mouse (from UniProt P50462 1-194)
E3 SUMO-protein ligase PIAS2 (from UniProt Q8C5D8 1-621)
ETS translocation variant 3-like protein (from UniProt A0A5F8MPE2 1-356)
Heterogeneous nuclear ribonucleoproteins A2/B1 (from UniProt O88569 1-353)
Heterogeneous nuclear ribonucleoproteins C (C1/C2) (from UniProt Q9Z204 1-313)
Leucine-rich repeat flightless-interacting protein 2 (from UniProt Q91WK0 1-415)
Moesin (from UniProt P26041 1-577)
NAMPT (from UniProt Q99KQ4 1-491)
PR domain zinc finger protein 2 (from UniProt A2A7B5 1-1709)
Ser/Thr-protein phosphatase 2A catalytic subunit alpha (from UniProt P63330 1-309)
Striated muscle-specific serine/threonine-protein kinase (from UniProt Q62407 1-3262)
TATA-binding protein-associated factor 2N (from UniProt Q8BQ46 1-557)
